## Results of single-concentration screens

The filed quantity is “Percent Effect” (%).
The controls that fix the scale are not given in the record; negative values are as filed.
The compounds are a random part of those screened.
Two or more numbers in one place are separate tests of the same structure; such repeats can differ widely.

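Growth of Mycobacterium tuberculosis over 3 days (7H9 medium with glucose and tyloxapol); the read-out is not stated. Compounds at 50 µM. Higher reads as more growth inhibition (inferred: compounds with an IC50 in retests scored well above the rest). About 69,000 compounds were tested under these conditions; 1.1% (about 760) showed 50% or more at least once.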

| compound | Percent Effect |
|---|---|
| `CC1CCN(c2nc3c(cnn3-c3ccccc3)c(=O)[nH]2)CC1` | 15.63% |
| `CCN(C)C(=O)c1cnc(-c2noc3cc(N4CCCCC4)ccc23)s1` | -33.38% & -10.21% |
| `CCCNC(=O)C[C@@H]1CCN(C(=O)c2cccnc2)C[C@@H]1CC` | 5.343% & 0.2765% |
| `CS(=O)(=O)NCC1CCCCN1C(=O)c1ccsc1` (stereo unspecified) | 8.648% |
| `O=C(NCc1ccncc1)N1CC(Cc2ccccc2F)C1` | -31.2% |
| `CCOc1ccc(C(=O)N(Cc2cnn(C)c2)C(C)C)cc1` | -24.06% |
| `Cc1csc(Nc2cc(C3CCCCN3C)nc(C)n2)n1` (stereo unspecified) | -11.86% |
| `COc1ccc(N2CCN(Cc3nc(CSC)no3)CC2=O)cc1` | 23.07% |
| `O=C(O)C(c1ccc2c(c1)OCCO2)N1CCSCC1` (stereo unspecified) | -14.12% |
| `Cc1cnn(CC2CN(Cc3nc(C)c4ccccc4n3)CCO2)c1` (stereo unspecified) | 8.538% |
| `O=C(O)C(F)(F)F.[H][C@@]12CN(Cc3ccsc3)CCO[C@]1([H])CN(C(=O)C1CC(F)(F)C1)C2` | -44.16% |
| `CN1CC2(CCCN(Cc3nnc(-c4cccc(F)c4)o3)C2)OC1=O` (stereo unspecified) | 5.01% |
| `CCn1nc(C)cc1C(=O)OCCNC(=O)c1ccccc1` | 8.521% |
| `Cc1ccc(CNC2CCN(CCc3ccncc3)CC2)cc1C` | 18.72% |
| `CCN1CCOCC2(CCCN(C(=O)c3ccncc3F)C2)C1.O=C(O)C(F)(F)F` (stereo unspecified) | 6.146% |
| `Nc1no[n+]([O-])c1C(=O)NCc1cccnc1` | -12.34% |
| `Cc1ccc(N2CCCC(NCC(=O)NC3CCOCC3)C2)nn1` (stereo unspecified) | -20.23% |
| `Cc1cc(C)n(CC(=O)N2CCC(c3cc4cccnc4[nH]3)CC2)n1` | 17.08% |
| `CCCNC(=O)CNc1ccc(C(=O)N2CCCCC2C)cc1C` (stereo unspecified) | -28.72% |
| `COc1ccc(C(NCc2cccc(C#N)c2)C2CC2)cc1` (stereo unspecified) | -14.81% |
| `CC(Nc1ccn(CCS(C)(=O)=O)n1)c1ccc(C#N)cc1` (stereo unspecified) | 17.47% |
| `O=C(c1ccccc1F)N1CCCC1Cn1c(=O)oc2ccccc21` (stereo unspecified) | -3.113% |
| `CSCCC(CO)NC(=O)c1sc(-c2ccccc2Cl)nc1C` (stereo unspecified) | 0.6458% |
| `Cc1cc(C(=O)N2CCn3nc(C(=O)NC4CC4)cc3C2)nc(C)n1` | 19.68% |
| `Cc1nc(CN2CCN(c3ccc4nncn4n3)C(C)C2)oc1C` (stereo unspecified) | 5.466% |
| `CNC(=O)N1CCC2(CC1)c1ncc(-c3cccc(F)c3)n1CCN2C.O=C(O)C(F)(F)F` | 10.79% |
| `N#Cc1ccc(NCc2cccc(COC3CCOCC3)c2)nc1` | 124.4% & 26.47% |
| `FC(F)(F)CCN(Cc1ccon1)C1CCC1` | -49.71% & 2.26% |
| `COc1ncccc1C(=O)NC1CCOc2ccccc21` (stereo unspecified) | -6.081% |
| `Cc1noc(NC(=O)c2ccc(C)c(F)c2)n1` | 94.51% |
| `Cl.c1cnc2c(c1)cc([C@@H]1CCCO1)n2CCN1CCOCC1` | -4.618% |
| `c1ccc2c(c1)CCN(c1nc(-c3ccncc3)nc3c1CCNC3)C2` | 63.42% |
| `CNC(=O)Cc1nc(CNc2ccc(SC)c(F)c2)cs1` | 11.28% |
| `CN(CCn1ccc2ccccc21)C(=O)Cc1nnn[nH]1` | -11.93% |
| `Cc1ccc(N2CCCN(C(=O)c3cc(Cl)c[nH]3)CC2)nn1` | 2.541% |
| `CC(Cn1cc(Br)cn1)C(=O)Nc1ccc(Cl)cn1` (stereo unspecified) | 56.17% |
| `CC(C)(C)OC(=O)N1CC(=O)N(Cc2ccco2)CC(O)C1` (stereo unspecified) | -1.361% |
| `Cc1cc(C(=O)N2CCN(c3nc4ccccc4s3)CC2)no1` | -40.01% |
| `Cc1cc(-n2nc(C)nc2-c2cn(CCN)nn2)ccn1` | -25.8% |
| `CCN1CCN(CC(O)c2ccc(OC(F)(F)F)cc2)CC1` (stereo unspecified) | 32.06% |
| `O=C(CCC(=O)N1CCc2ccccc2C1)c1cccs1` | -32.31% |
| `CC(C)c1nc(C2CCCN2CC(=O)Nc2cccnc2)no1` (stereo unspecified) | -5.084% |
| `Cc1nc[nH]c1-c1nccn1CCN1CCOC1=O` | 18.89% |
| `CC(C)CCN1CCN(Cc2nc(C3CC3)no2)CC1` | -7.516% |
| `CC(=O)N1CCN(C(=O)NCCc2ccc(Cl)s2)CC1` | 0.2666% |
| `Cc1ccc(-c2ccnc(NC(C)c3n[nH]c(C)n3)n2)c(C)n1` (stereo unspecified) | -3.7% |
| `CCCS(=O)(=O)N1CC(=O)N(CCCc2ccccc2)CC(O)C1` (stereo unspecified) | -2.567% |
| `Cn1nc(C2CCCC2)c(-c2ccc3c(c2)OCO3)c1N` | -4.471% |
| `C=C(C)COc1cccc(C(=O)N2CCC3(CCOCC3)CC2)c1` | -34.78% |
| `COc1cccc(-c2nc(C)c(C(=O)N[C@@H](C)C(=O)O)s2)c1` | -6.608% |
| `O=C(c1ccoc1)N1CCC(O)(C(F)(F)F)CC1` | 11.36% |
| `Fc1ccc2c(C3=CCN(Cc4nnc(C5CCC5)o4)CC3)c[nH]c2c1` | 36.16% |
| `Cc1nc(CN(C)C2CCN(CCc3cccs3)C2)no1` (stereo unspecified) | -47.05% |
| `CNc1ncc(C(=O)N2CCOC(C(=O)Nc3ccccc3)C2)cn1` (stereo unspecified) | 5.75% |
| `COc1ccc(Cc2noc(C3=NN(C)C(=O)CC3)n2)cc1OC` | -7.21% |
| `N#Cc1ccc(CN2CCNC(=O)C2c2cccs2)cc1` (stereo unspecified) | 0.06958% & -30.69% |
| `CC(C)c1nc2c(n1C)CCN(CC(=O)Nc1nncs1)C2` | -12.17% |
| `CC(C)NC(=O)Nc1ccc(CS(=O)(=O)C(C)(C)C)cc1` | -9.134% & -0.4715% |
| `NCC1Cc2cc(Cl)cc(-c3cncc(C(=O)N4CCCCC4)n3)c2O1` (stereo unspecified) | 27.39% |

Data taken from ChEMBL document CHEMBL3988442, “University of Dundee, Small-Polar-MMV Screening Library” (2021).